The assay deals with GST-UFM1(G) (mouse UFM1 with a C-terminal ending glycine residue, N-terminal GST) (mouse) (UniProt P61961). Put plainly: pull-down; GST-UFM1(G), CDK5RAP3-GST or GST on glutathione-agarose beads; 35S-labelled in vitro translated proteins, pre-cleared on GST beads, added together with pre-cleared MIN6 lysate in ubiquitilation buffer (50 mM Tris pH 7.5, 100 mM NaCl, 0.1% NP40, 1 mM DTT, 2 mM ATP, 5 mM MgCl2), 30 min at 40°C as printed; phosphorimaging; only the target purified.

Protein sequences, listed by entry. Tags and fused reporters are not part of them. Lines headed by an entry give the natural chain unless they say otherwise; changes in a name come on top.
UniProt P61961: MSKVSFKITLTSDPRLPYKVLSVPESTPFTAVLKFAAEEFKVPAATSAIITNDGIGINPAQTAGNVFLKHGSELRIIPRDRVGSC
UniProt P20029: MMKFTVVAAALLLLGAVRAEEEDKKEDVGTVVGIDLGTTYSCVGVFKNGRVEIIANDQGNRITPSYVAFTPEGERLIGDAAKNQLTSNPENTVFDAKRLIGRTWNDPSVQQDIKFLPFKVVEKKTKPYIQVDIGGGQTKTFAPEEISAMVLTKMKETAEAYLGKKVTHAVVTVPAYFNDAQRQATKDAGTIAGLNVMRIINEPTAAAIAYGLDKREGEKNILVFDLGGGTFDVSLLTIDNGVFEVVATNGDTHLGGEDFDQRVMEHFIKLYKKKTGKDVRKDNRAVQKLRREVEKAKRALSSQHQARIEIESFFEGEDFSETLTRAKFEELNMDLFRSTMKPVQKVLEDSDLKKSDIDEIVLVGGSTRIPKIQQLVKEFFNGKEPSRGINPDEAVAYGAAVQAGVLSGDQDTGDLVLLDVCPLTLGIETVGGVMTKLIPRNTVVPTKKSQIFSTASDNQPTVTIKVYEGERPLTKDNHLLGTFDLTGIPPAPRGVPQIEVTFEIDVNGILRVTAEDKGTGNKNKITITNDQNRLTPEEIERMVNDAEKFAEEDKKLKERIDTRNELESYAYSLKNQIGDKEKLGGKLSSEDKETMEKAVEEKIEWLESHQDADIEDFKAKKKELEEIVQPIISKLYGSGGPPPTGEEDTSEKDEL

Results are given in words; binding and its absence hold for the method and conditions named. In cells and extracts the contact can be indirect.

Take “35S-labelled mouse BiP, in vitro translated (from UniProt P20029 1-655)”: the binding entry is “no binding”.

(Values after paper PMC3071830.)
